Source: PMC13161223, “Molecular anatomy of PLK1 master docking motifs” (Nature Communications, 2026)
Results are given in words; binding and its absence hold for the method and conditions named. Some entries that bind do so weakly or less than the wild type. Where a sequence is shown, tags or fusion partners need not be part of it.

Chains of the proteins cited; added tags and fusions are not shown. Residues count along the entry.
UniProt P53350, residues 345-603: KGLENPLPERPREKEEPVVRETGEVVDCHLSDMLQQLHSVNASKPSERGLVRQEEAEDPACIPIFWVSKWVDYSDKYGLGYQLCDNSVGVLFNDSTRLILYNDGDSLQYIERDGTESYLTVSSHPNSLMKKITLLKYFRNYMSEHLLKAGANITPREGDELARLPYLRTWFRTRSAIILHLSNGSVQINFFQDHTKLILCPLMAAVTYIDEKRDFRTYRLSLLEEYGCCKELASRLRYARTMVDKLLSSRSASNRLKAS

Target: Polo-box domain (PBD) of human PLK1 as used in the SEC experiments of Fig. 5F-H (human) (UniProt P53350)
Assay: SEC; analytical SEC of Fig. 5F, 50 mM HEPES pH 7.5, 150 mM NaCl, 5% glycerol, 1 mM TCEP, 4 °C; kinase domain, PBD and MAP205 mixed; both purified

B1: MBP-Map205^264-322-His (domain or fragment, UniProt P23226 264-322)
chain: GVQPRPFLPGGTLDDLVAESPRKEFARINMDGIAVPDEREFDIEADMRPHELEQESDTF
binding: binds
